The target of experiment [1] is T1, YFP-SA2^e32+ (YFP-tagged SA2 containing exon 32) (human) (UniProt Q8N3U4).
T1 sequence: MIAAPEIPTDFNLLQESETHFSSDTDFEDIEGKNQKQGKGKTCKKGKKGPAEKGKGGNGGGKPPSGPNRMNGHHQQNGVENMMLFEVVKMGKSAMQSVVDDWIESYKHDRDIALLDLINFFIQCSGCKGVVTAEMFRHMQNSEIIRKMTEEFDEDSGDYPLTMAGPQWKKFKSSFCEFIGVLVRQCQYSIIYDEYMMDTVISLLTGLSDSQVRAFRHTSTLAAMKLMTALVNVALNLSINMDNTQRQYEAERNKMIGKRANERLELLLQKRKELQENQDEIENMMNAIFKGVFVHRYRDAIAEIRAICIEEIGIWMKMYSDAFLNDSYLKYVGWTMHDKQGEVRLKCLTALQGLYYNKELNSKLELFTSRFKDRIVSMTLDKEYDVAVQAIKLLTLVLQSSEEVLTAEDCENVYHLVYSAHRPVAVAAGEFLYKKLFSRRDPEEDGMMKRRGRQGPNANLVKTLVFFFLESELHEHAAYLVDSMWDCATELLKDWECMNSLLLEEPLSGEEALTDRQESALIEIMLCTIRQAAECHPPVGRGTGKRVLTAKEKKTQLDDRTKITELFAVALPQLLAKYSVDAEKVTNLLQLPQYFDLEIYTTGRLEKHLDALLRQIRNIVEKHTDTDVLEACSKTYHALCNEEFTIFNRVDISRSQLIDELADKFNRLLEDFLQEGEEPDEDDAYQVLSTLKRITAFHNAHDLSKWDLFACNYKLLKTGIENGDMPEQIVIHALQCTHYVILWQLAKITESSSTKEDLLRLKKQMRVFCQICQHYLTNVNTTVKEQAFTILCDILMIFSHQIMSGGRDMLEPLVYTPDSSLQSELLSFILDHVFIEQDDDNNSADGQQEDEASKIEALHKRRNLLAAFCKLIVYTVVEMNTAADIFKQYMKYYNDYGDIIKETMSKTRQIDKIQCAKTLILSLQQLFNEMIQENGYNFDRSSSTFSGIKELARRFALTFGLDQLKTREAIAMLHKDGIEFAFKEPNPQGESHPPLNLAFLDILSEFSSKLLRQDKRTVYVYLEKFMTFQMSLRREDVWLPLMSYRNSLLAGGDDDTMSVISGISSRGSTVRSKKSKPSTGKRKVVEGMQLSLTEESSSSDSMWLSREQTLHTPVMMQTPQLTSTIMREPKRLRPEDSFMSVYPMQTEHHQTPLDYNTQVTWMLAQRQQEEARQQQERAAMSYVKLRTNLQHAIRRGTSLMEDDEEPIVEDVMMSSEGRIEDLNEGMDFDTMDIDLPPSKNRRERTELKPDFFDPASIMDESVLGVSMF
The experiment in a line: affinity purification with mass spectrometry; GFP-Trap IP of YFP-SA2 isoforms from whole cell lysates of transfected HCT116 OsTIR cells, prepared as for CLIP, washes in high salt buffer (1 M NaCl, 1 M urea); LC-MS/MS, three biological replicates; GFP-Trap of untransfected cells as mock.

Sequences of proteins named here, by UniProt entry; tags and fusion partners are left off.
UniProt Q7Z739: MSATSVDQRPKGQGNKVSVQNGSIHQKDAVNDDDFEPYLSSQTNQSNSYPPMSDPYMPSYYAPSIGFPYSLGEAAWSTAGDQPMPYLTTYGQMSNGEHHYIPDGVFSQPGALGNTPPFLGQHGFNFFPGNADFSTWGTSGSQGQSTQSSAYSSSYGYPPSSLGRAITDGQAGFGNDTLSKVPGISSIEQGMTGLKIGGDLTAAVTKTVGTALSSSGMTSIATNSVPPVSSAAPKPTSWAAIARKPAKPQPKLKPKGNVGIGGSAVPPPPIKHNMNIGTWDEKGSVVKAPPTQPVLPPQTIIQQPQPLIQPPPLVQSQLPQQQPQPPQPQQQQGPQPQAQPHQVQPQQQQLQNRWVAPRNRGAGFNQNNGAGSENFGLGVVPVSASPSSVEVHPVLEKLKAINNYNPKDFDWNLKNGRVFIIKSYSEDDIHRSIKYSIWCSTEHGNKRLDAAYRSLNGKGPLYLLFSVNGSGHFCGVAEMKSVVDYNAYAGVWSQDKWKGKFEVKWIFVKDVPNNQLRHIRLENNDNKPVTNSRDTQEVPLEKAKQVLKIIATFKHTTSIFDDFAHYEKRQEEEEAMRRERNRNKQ

Experiment [2] concerns the target T2, SA1 (Stromalin Antigen 1, STAG1) (human (endogenous in HCT116 and HeLa)) (UniProt Q8WVM7).
T2 sequence: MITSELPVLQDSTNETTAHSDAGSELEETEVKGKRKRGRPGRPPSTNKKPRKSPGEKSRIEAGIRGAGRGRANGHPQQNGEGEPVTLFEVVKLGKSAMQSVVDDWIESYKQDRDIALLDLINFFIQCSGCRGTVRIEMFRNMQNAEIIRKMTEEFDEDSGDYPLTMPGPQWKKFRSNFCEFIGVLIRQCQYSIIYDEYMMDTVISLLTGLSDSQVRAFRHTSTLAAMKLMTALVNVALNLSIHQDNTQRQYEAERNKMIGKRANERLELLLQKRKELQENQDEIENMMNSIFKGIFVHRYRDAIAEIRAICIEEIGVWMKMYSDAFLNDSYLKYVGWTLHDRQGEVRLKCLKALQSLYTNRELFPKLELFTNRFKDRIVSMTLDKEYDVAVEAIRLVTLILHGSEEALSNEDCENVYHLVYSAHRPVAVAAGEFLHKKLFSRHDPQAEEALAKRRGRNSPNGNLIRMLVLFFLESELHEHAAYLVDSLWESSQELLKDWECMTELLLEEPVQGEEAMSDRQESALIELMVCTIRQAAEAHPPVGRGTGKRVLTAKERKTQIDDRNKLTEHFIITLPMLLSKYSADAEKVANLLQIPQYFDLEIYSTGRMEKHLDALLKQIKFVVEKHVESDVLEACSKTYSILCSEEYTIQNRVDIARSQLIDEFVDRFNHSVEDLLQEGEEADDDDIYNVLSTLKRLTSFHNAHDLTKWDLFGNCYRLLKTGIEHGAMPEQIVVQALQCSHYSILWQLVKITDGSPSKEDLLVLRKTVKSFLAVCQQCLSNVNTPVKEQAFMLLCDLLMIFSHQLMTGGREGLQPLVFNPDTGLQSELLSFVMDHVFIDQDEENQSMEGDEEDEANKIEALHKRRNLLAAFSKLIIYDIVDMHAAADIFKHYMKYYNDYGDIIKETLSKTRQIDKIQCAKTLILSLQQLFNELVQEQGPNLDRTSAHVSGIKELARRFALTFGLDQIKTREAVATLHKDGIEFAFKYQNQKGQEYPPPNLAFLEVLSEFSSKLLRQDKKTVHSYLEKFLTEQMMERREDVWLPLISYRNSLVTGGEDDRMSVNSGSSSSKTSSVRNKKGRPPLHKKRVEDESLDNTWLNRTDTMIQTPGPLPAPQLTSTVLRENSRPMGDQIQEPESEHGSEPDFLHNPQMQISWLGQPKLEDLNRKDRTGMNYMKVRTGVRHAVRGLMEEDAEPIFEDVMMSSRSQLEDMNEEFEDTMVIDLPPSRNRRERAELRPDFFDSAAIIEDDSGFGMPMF
The experiment in a line: affinity purification with mass spectrometry; endogenous SA1 IP (15 μg antibody, 2 mg chromatin extract) from RAD21mAC cells untreated or IAA 4 h, with IgG and siSA1 controls; LC-MS/MS, three biological replicates.

No constants are given. Whether binding was seen depends on the method and setting. In cells and extracts the contact can be indirect. A yes stands for co-enrichment or nearness to the bait. Other partners may have been found. Where a sequence is shown, tags or fusion partners need not be part of it.

For the molecule YTHDF3 (from UniProt Q7Z739 1-585), the binding result in experiment [1] and in experiment [2] was “binds” throughout.

B1: DIS3 (protein, UniProt Q9Y2L1 1-958)
chain: MLKSKTFLKKTRAGGVMKIVREHYLRDDIGCGAPGCAACGGAHEGPALEPQPQDPASSVCPQPHYLLPDTNVLLHQIDVLEDPAIRNVIVLQTVLQEVRNRSAPVYKRIRDVTNNQEKHFYTFTNEHHRETYVEQEQGENANDRNDRAIRVAAKWYNEHLKKMSADNQLQVIFITNDRRNKEKAIEEGIPAFTCEEYVKSLTANPELIDRLACLSEEGNEIESGKIIFSEHLPLSKLQQGIKSGTYLQGTFRASRENYLEATVWIHGDNEENKEIILQGLKHLNRAVHEDIVAVELLPKSQWVAPSSVVLHDEGQNEEDVEKEEETERMLKTAVSEKMLKPTGRVVGIIKRNWRPYCGMLSKSDIKESRRHLFTPADKRIPRIRIETRQASTLEGRRIIVAIDGWPRNSRYPNGHFVRNLGDVGEKETETEVLLLEHDVPHQPFSQAVLSFLPKMPWSITEKDMKNREDLRHLCICSVDPPGCTDIDDALHCRELENGNLEVGVHIADVSHFIRPGNALDQESARRGTTVYLCEKRIDMVPELLSSNLCSLKCDVDRLAFSCIWEMNHNAEILKTKFTKSVINSKASLTYAEAQLRIDSANMNDDITTSLRGLNKLAKILKKRRIEKGALTLSSPEVRFHMDSETHDPIDLQTKELRETNSMVEEFMLLANISVAKKIHEEFSEHALLRKHPAPPPSNYEILVKAARSRNLEIKTDTAKSLAESLDQAESPTFPYLNTLLRILATRCMMQAVYFCSGMDNDFHHYGLASPIYTHFTSPIRRYADVIVHRLLAVAIGADCTYPELTDKHKLADICKNLNFRHKMAQYAQRASVAFHTQLFFKSKGIVSEEAYILFVRKNAIVVLIPKYGLEGTVFFEEKDKPNPQLIYDDEIPSLKIEDTVFHVFDKVKVKIMLDSSNLQHQKIRMSLVEPQIPGISIPTDTSNMDLNGPKKKKMKLGK
Consider B1, for which, in experiment [1], the binding result was “binds”.
